Assay results published in PubChem BioAssay AID540256 (National Center for Advancing Translational Sciences (NCATS), 2011).
The whole screen tested about 300,000 compounds, of which about 3,700 (1.2%) were called active. Inconclusive results, whose numbers are uncertain, are shown with a selection of clear calls. Calls come from the whole dose curve; tested in HEK293 cells. Where the call is inconclusive, the potency comes from a doubtful curve fit.

Assay: qHTS for Inhibitors of binding or entry into cells for Lassa Virus; note: nearly all actives have a fitted effect of over 50% in size
Conditions: Lassa virus pseudotype entry inhibition, cell reporter; activity change, negative = inhibition: at 37.9 µM (top of the series) unless noted
% is set by controls: 0 for no effect and ±100 for the full control effect; potency is the fitted concentration of half-maximal effect.

| Structure (SMILES) | activity change, negative = inhibition | Potency |
| --- | --- | --- |
| CCn1cc(C(=O)O)c(=O)c2cc(F)c(N3CCN(C(=S)NC(=O)c4cccc(F)c4)CC3)cc21 | inactive: -11% | – |
| O=C(CCc1ccccc1)Nc1ccc(NC(=O)c2ccco2)cc1 | – | inconclusive: 25.9 µM [activator, single point] |
| CCN(c1ccccc1)S(=O)(=O)c1ccc(C(=O)Nc2ccncc2)cc1 | – | inconclusive: 1 µM [inhibitor, full curve, poor fit] |
| CCOc1cccc(C(=O)NC2=NCCS2)c1 | – | inconclusive: 10 µM [inhibitor, partial curve, poor fit] |
| CCOC(=O)c1sc2cccc(F)c2c1S(=O)(=O)Nc1ccccc1F | inactive: 4.43% [at 46.1 µM] | – |
| S=C(Nc1cccc(Cl)c1)N(CCCN1CCCC1)Cc1cccn1Cc1ccc(Cl)cc1 | – | inconclusive: 12.6 µM [inhibitor, partial curve, poor fit] |
| CCOC(=O)C1(c2ccccc2)CCN(CC(=O)Nc2cccc3ccccc23)CC1 | – | inconclusive: 16.4 µM [inhibitor, single point] |
| c1ccn2cc(CSC3=NCCS3)nc2c1 | – | inconclusive: 20 µM [activator, partial curve, poor fit] |
| Cc1cc(N(CN2CCCC2=O)C(=O)c2ccc(OC(C)C)cc2)no1 | – | inconclusive: 35.5 µM [activator, single point] |
| Nc1cccc(C(=O)N/N=C/c2ccsc2)c1 | inactive: 8.47% | – |
| Cc1ccc(NC(=O)Cn2c(=O)cc(-c3ccccc3)c3c(C)nn(C)c32)c(Cl)c1 | inactive: -14% [at 46.1 µM] | – |
| CCc1ccc(C(CC(=O)O)N2Cc3ccccc3C2=O)cc1 (stereo not drawn) | – | inconclusive: 7.94 µM [inhibitor, partial curve] |
| O=C(NCCc1c[nH]c2ccccc12)c1cc(Cl)c2c(c1)OCO2 | – | inconclusive: 22.4 µM [inhibitor, partial curve, poor fit] |
| COc1ccc(NC(=O)c2nnn(CC(=O)Nc3cc(C)cc(C)c3)c2N)c(OC)c1 | – | inconclusive: 11.2 µM [activator, partial curve, poor fit] |
| COc1ccc(C2(c3ccc(OC)cc3)NC(=O)N(CC(=O)Nc3ccc(OC)c(OC)c3)C2=O)cc1 | – | inconclusive: 17.8 µM [inhibitor, partial curve, poor fit] |
| Cc1ccc2c(c1)CCCN2N=O | – | inconclusive: 14.1 µM [activator, single point] |
| CCCc1nnc(NC(=O)CCC(=O)N2CCN(Cc3ccc(C)cc3C)CC2)s1 | – | inconclusive: 8.91 µM [inhibitor, single point] |
| CCCCn1c(N)c(N(CCC(C)C)C(=O)C2=NN(c3cc(C)ccc3C)C(=O)CC2)c(=O)[nH]c1=O | – | inconclusive: 11.2 µM [activator, partial curve, poor fit] |
| Cc1ccc(S(=O)(=O)N(CC(=O)NCCC2=CCCCC2)Cc2ccccc2F)cc1 | – | inconclusive: 8.91 µM [inhibitor, partial curve, poor fit] |
| CC(C)c1ccc(C2C3=C(CC(C)(C)CC3=O)NC3=C2C(=O)c2ccccc23)cc1 (stereo not drawn) | – | inconclusive: 29.1 µM [inhibitor, single point] |
| COc1cc(/C=N/NC(N)=S)ccc1OCc1ccc(C)cc1 | – | inconclusive: 22.4 µM [inhibitor, partial curve, poor fit] |

| Structure (SMILES) | activity change, negative = inhibition | Potency |
| --- | --- | --- |
| COc1ccc(CNc2nc(-c3ccco3)nn2C(=O)c2ccccc2C)cc1 | – | inconclusive: 10 µM [activator, partial curve, poor fit] |
| Cc1ccc(-c2nc(CNC(=O)NC3CCCCC3)c(C)o2)cc1 | – | inconclusive: 11.2 µM [activator, single point] |
| Cn1c(-c2cc(Br)ccc2O)n[nH]c1=S | – | inconclusive: 0.58 µM [inhibitor, partial curve, poor fit] |
| O=c1c2ccccc2nc(-c2ccccc2Cl)n1-c1ccc(O)cc1 | – | inconclusive: 3.55 µM [inhibitor, partial curve, poor fit] |
| O=C(Cc1cccs1)N1CCCC(c2nc3c(nnn3Cc3cccc(Cl)c3)c(=O)[nH]2)C1 (stereo not drawn) | – | inconclusive: 29.1 µM [inhibitor, single point] |
| CCOC(=O)c1ccc(N2Cc3ccccc3C2=NC(=O)c2cccs2)cc1 | – | active: 10 µM |
| Cc1ccc(S(=O)(=O)c2nnn3c2nc(N2CCN(c4cccc(C)c4C)CC2)c2ccccc23)cc1C | inactive: 7.98% [at 46.1 µM] | – |
| Cc1cccc(Nc2nc(N3CCCC3)nc(N3CCCC3)n2)c1 | – | inconclusive: 23.1 µM [inhibitor, single point] |
| Cc1ccc(NC(=O)C2CCCN(c3ncnc4onc(C)c34)C2)cc1Cl (stereo not drawn) | inactive: 2.51% [at 46.1 µM] | – |
| COc1ccc(CNC(=O)CSCc2ccccc2Cl)cc1 | – | inconclusive: 4.61 µM [activator, partial curve, poor fit] |
| CC(C)(C)n1nnnc1C(c1ccc(F)cc1)N(Cc1ccc(F)cc1)Cc1ccco1 (stereo not drawn) | – | inconclusive: 13 µM [inhibitor, partial curve, poor fit] |
| O=C(c1ccccc1)c1ccc2nc(N3CCN(c4ccc(F)cc4)CC3)c3nncn3c2c1 | – | inconclusive: 6.31 µM [inhibitor, single point] |
| COc1ccc([N+](=O)[O-])cc1NC(=O)C(C)OC(=O)c1ccccc1C(=O)c1ccc(Cl)cc1 (stereo not drawn) | – | inconclusive: 7.31 µM [inhibitor, partial curve, poor fit] |
| CCOC(=O)N1CCC(N2CCCC(C(=O)c3ccc4cc(OC)ccc4c3)C2)CC1 (stereo not drawn) | – | inconclusive: 17.8 µM [inhibitor, single point] |
| COc1ccccc1-c1cc(C(=O)N/N=C/c2ccc(C)s2)c2ccccc2n1 | – | active: 7.08 µM |
| COc1ccc(NC(=O)c2ccc(-c3nn(C)c(=O)c4ccccc34)cc2)cc1 | – | inconclusive: 20 µM [activator, single point] |
| O=C(CN1C(=O)COc2ccc(Cl)cc21)Nc1ccc2c(c1)OCCO2 | – | inconclusive: 0.82 µM [activator, full curve, poor fit] |
| CCOc1ccc(CN(C(=O)c2cc3ccccc3oc2=O)C2CCS(=O)(=O)C2)cc1 (stereo not drawn) | – | inconclusive: 8.91 µM [activator, partial curve] |
| COc1cc(OC)c(C(=O)OCCCOC(=O)c2cc(OC)c(OC)cc2OC)cc1OC | – | inconclusive: 1.26 µM [inhibitor, single point] |
| O=C(Cc1c[nH]c2ccccc12)Nc1nnc(C2CC2)s1 | – | active: 3.55 µM |
| O=C(Nc1cc(F)ccc1F)c1cnn2c(C(F)F)cc(-c3ccccc3)nc12 | inactive: 4.58% [at 46.1 µM] | – |

| Structure (SMILES) | activity change, negative = inhibition | Potency |
| --- | --- | --- |
| COc1cc(OC)c(NC(=O)C(C)n2nc(-c3ccc(C)cc3)c3c(c2=O)CCCC3)cc1Cl (stereo not drawn) | – | inconclusive: 11.2 µM [inhibitor, partial curve] |
| N#Cc1ccccc1NC(=O)C(=O)NCC(c1cccnc1)N1CCc2ccccc21 (stereo not drawn) | inactive: -7.13% [at 46.1 µM] | – |
| Cc1ccc(C2CCN(C(=S)NC3CCCCC3)C2)cc1 (stereo not drawn) | – | inconclusive: 11.2 µM [inhibitor, partial curve, poor fit] |
| CC(C)n1c(NCCc2ccccc2)nc2c1c(=O)n(C)c(=O)n2C | – | inconclusive: 10 µM [inhibitor, partial curve] |
| O=C(Nc1ccc2c3c(cccc13)CC2)c1ccco1 | – | inconclusive: 20 µM [activator, partial curve, poor fit] |
| COc1ccc(-c2c(C)oc3c(CN4CCCCC4C)c(O)ccc3c2=O)cc1 (stereo not drawn) | – | inconclusive: 35.5 µM [inhibitor, single point] |
| Cc1cc(C)n(-c2nc(SCCN(C)C)c3c4c(sc3n2)COC(C)(C)C4)n1 | – | inconclusive: 20.6 µM [inhibitor, partial curve, poor fit] |
| CCOc1ccc(-c2c(C(=O)N/N=C/c3ccc(OC)cc3)nnn2-c2nonc2N)cc1 | – | inconclusive: 3.66 µM [inhibitor, partial curve, poor fit] |
| O=C(Nc1cccc(-n2cccn2)c1)C1CCCN(Cc2cccc(F)c2F)C1 (stereo not drawn) | – | inconclusive: 3.16 µM [inhibitor, partial curve, poor fit] |
| Cn1/c(=N/N=C/c2ccc(N3CCOCC3)cc2)sc2ccccc21 | inactive: 15.8% [at 46.1 µM] | – |
| CSCCC(NS(=O)(=O)c1ccc2c(c1)oc(=O)n2C)C(=O)NCc1cccs1 (stereo not drawn) | inactive: -16.3% | – |
| O=C(OCc1nc2ccccc2s1)c1cccc(N2C(=O)CCC2=O)c1 | inactive: 7.83% | – |
| Cc1noc2ncnc(Sc3ccccc3Cl)c12 | – | inconclusive: 18.3 µM [inhibitor, partial curve, poor fit] |
| Cc1ccc(CNC(=O)c2cccc(Nc3nc4ccccc4n4nnnc34)c2)cc1 | – | inconclusive: 5.62 µM [inhibitor, single point] |
| CCc1ccc(NC(=O)CCNC(=O)Cn2cnc3ccccc3c2=O)cc1 | – | inactive |
| Nc1ccccc1N=Cc1c(O)n(CCC2=CCCCC2)c(=O)[nH]c1=O | – | inconclusive: 2.91 µM [inhibitor, full curve, poor fit] |
| CCn1c(SCC(=O)NCc2ccccc2)nc2ccccc2c1=O | – | inconclusive: 20.6 µM [activator, single point] |
| O=C(NCc1ccc(Cl)cc1)C1CCN(C(=O)c2ccc(Cl)cc2)CC1 | – | inconclusive: 4.47 µM [inhibitor, partial curve, poor fit] |
| O=C1CCCCC1C(Nc1ccc(Cl)cc1)c1ccccc1 (stereo not drawn) | inactive: 3.19% | – |
| Cc1ccc(NC(=O)CSC2=C(C#N)C(c3ccco3)C3=C(CC(C)(C)CC3=O)N2)cc1 (stereo not drawn) | – | inconclusive: 13 µM [inhibitor, partial curve] |
| COc1ccc(C(=O)N/N=C\C(C)=C\c2ccccc2)cc1OC | – | inconclusive: 3.16 µM [inhibitor, partial curve, poor fit] |

Three records drawn at random from the list so far, as already listed:

| Structure (SMILES) | activity change, negative = inhibition | Potency |
| --- | --- | --- |
| CCn1cc(C(=O)O)c(=O)c2cc(F)c(N3CCN(C(=S)NC(=O)c4cccc(F)c4)CC3)cc21 | inactive: -11% | – |
| O=C(Cc1c[nH]c2ccccc12)Nc1nnc(C2CC2)s1 | – | active: 3.55 µM |
| Cc1noc2ncnc(Sc3ccccc3Cl)c12 | – | inconclusive: 18.3 µM [inhibitor, partial curve, poor fit] |
